Data as given in PMC7212426.
No constants are given. Whether binding was seen depends on the method and setting. Binding seen in cells or lysates may run through a third protein. Some entries that bind do so weakly or less than the wild type.

Molecular target: microtubule-associated protein RP/EB family member 2 (human (endogenous in A549/DDP)) (UniProt Q15555)
Test: co-IP; A549/DDP cells transfected with si-con or si-WDHD1, lysed with RIPA after 24 h; precipitated with anti-MAPRE2 (human IgG as control) overnight at 4°C, protein A + G agarose; Western blot for ubiquitin, WDHD1 and MAPRE2

- binding: binds
B1: WD repeat and HMG-box DNA binding protein 1 (protein, UniProt O75717 1-1129)
chain: MPATRKPMRYGHTEGHTEVCFDDSGSFIVTCGSDGDVRIWEDLDDDDPKFINVGEKAYSCALKSGKLVTAVSNNTIQVHTFPEGVPDGILTRFTTNANHVVFNGDGTKIAAGSSDFLVKIVDVMDSSQQKTFRGHDAPVLSLSFDPKDIFLASASCDGSVRVWQISDQTCAISWPLLQKCNDVINAKSICRLAWQPKSGKLLAIPVEKSVKLYRRESWSHQFDLSDNFISQTLNIVTWSPCGQYLAAGSINGLIIVWNVETKDCMERVKHEKGYAICGLAWHPTCGRISYTDAEGNLGLLENVCDPSGKTSSSKVSSRVEKDYNDLFDGDDMSNAGDFLNDNAVEIPSFSKGIINDDEDDEDLMMASGRPRQRSHILEDDENSVDISMLKTGSSLLKEEEEDGQEGSIHNLPLVTSQRPFYDGPMPTPRQKPFQSGSTPLHLTHRFMVWNSIGIIRCYNDEQDNAIDVEFHDTSIHHATHLSNTLNYTIADLSHEAILLACESTDELASKLHCLHFSSWDSSKEWIIDLPQNEDIEAICLGQGWAAAATSALLLRLFTIGGVQKEVFSLAGPVVSMAGHGEQLFIVYHRGTGFDGDQCLGVQLLELGKKKKQILHGDPLPLTRKSYLAWIGFSAEGTPCYVDSEGIVRMLNRGLGNTWTPICNTREHCKGKSDHYWVVGIHENPQQLRCIPCKGSRFPPTLPRPAVAILSFKLPYCQIATEKGQMEEQFWRSVIFHNHLDYLAKNGYEYEESTKNQATKEQQELLMKMLALSCKLEREFRCVELADLMTQNAVNLAIKYASRSRKLILAQKLSELAVEKAAELTATQVEEEEEEEDFRKKLNAGYSNTATEWSQPRFRNQVEEDAEDSGEADDEEKPEIHKPGQNSFSKSTNSSDVSAKSGAVTFSSQGRVNPFKVSASSKEPAMSMNSARSTNILDNMGKSSKKSTALSRTTNNEKSPIIKPLIPKPKPKQASAASYFQKRNSQTNKTEEVKEENLKNVLSETPAICPPQNTENQRPKTGFQMWLEENRSNILSDNPDFSDEADIIKEGMIRFRVLSTEERKVWANKAKGETASEGTEAKKRKRVVDESDETENQEEKAKENLNLSKKQKPLDFSTNQKLSAFAFKQE
